This note sets out measurements from publication PMC7819943, “Rice protein-binding microarrays: a tool to detect cis-acting elements near promoter regions in rice”.

Some of the results follow.

The experiment deals with T1, OsSMF1 (Oryza sativa, UniProt Q6ZLB0 1-436).
T1 sequence: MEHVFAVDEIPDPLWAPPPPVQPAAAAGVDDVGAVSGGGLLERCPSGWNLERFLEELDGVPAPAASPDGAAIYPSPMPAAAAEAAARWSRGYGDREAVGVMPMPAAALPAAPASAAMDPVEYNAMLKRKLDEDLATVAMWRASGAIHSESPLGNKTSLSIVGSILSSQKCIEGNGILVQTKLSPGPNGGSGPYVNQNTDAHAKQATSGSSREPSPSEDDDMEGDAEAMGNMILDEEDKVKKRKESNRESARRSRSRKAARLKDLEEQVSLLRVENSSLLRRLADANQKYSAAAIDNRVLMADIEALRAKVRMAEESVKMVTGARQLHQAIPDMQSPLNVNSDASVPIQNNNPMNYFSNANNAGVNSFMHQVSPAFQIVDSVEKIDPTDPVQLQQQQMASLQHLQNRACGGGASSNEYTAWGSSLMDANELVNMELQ
The experiment can be described thus: protein-binding microarray (RPBM); PBS, 2% BSA, 51.3 ng/ul salmon testes DNA, 50 uM zinc acetate, 200 nM TF, 25 C, 1 h; high values mean tight binding. The note with it: protein: recombinant; tags: N-terminal polyhistidine and DsRed monomer fusion (pET32a); chain copies: 2; label: CyDye5-dUTP incorporated in the synthesized complementary strand; 3' TTTTT single-stranded linker to array surface; dsDNA, one strand shown. An outline of the steps:
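Per-feature fluorescence intensity (arbitrary units), read on an Axon 4000B scanner, is the binding signal. Transcription factors carrying an N-terminal polyhistidine tag and DsRed fusion were expressed in E. coli BL21-CodonPlus and purified on Ni–NTA. A custom Agilent array, made double-stranded by primer extension with Cy5-dUTP and blocked with 2% BSA, was incubated with 200 nM protein in PBS, 2% BSA, salmon testes DNA and 50 µM zinc acetate at 25 °C for 1 h and then washed.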
On to “CCACTCGTCGCCCTCGGCCATGACGCGGCCTCTCCCGAACCGGAGTCACCTAGTGCAG”, for which the binding signal was 4540 fluorescence intensity (a.u.).

“ATTTCGGGACGGAGGGTGTACCATCTAAATGAGCTGGCAACGGAGTCACCTAGTGCAG”: the binding signal was 4870 fluorescence intensity (a.u.).

For the sequence “GTAGCGATGCTTCGCGTGGTGCTGACGTCATCGGATCCGACGGAGTCACCTAGTGCAG”, the binding signal was 32500 fluorescence intensity (a.u.). The result for “TGGCCAGCTTCACCGCGAAGCGCCACGTGTCTTCCACTCACGGAGTCACCTAGTGCAG” reads 21900 fluorescence intensity (a.u.); that for “TAGATCAATATCCTCACTTGAGAAACTTGAGGAGTTGGCACGGAGTCACCTAGTGCAG”, 4030 fluorescence intensity (a.u.); that for “AGCTAAGACATCGATCGAGGACGCATCACGCATCCATTCCCGGAGTCACCTAGTGCAG”, 3460 fluorescence intensity (a.u.). For the sequence “ACTTCCCCGGGTGTACGTCGCTCGGGAACACGCTTGGCCGCGGAGTCACCTAGTGCAG”, the binding signal was 3420 fluorescence intensity (a.u.).

With “CGATGAACTCTTGGCGTTTTCTCATGGCATGACGCCACAGCGGAGTCACCTAGTGCAG”, the binding signal is 3320 fluorescence intensity (a.u.).

Regarding “AGCCAAGCCCCTCCGCGGCGCGCGCGTTATCCATCTCCCCCGGAGTCACCTAGTGCAG”, the binding signal was 8510 fluorescence intensity (a.u.).

Turning to “GGTCACCTCATGCTCGCTCCGTTCACTTCGCTGACAGGTGCGGAGTCACCTAGTGCAG”, the binding signal is 3790 fluorescence intensity (a.u.). On to “GCTATCGCCGGTTTCGTCATCAATAATCTTCTCTGCCTCTCGGAGTCACCTAGTGCAG”, for which the binding signal is 6100 fluorescence intensity (a.u.). The figure for “TATACAATCGTGTGTTTCTGTGTCGTCATCTGACGTAGTCCGGAGTCACCTAGTGCAG” is 7450 fluorescence intensity (a.u.).

As to “TTTGCCATATACATTGGTGATGCCCTTAGGTTCAAAAGATCGGAGTCACCTAGTGCAG”, the binding signal was 5390 fluorescence intensity (a.u.).

Regarding “TTTTGTTTGTTTTGATGTCGTGTCATGTAGATACTCGTACCGGAGTCACCTAGTGCAG”, the binding signal was 8270 fluorescence intensity (a.u.). With “ACCTGCCACATTTACCAGTCACCACGACGGCAGCATTTCCCGGAGTCACCTAGTGCAG”, the binding signal is 3960 fluorescence intensity (a.u.).

With “CATTCATACAATTAGTTTTATTATTAGTCTATGTTTAATACGGAGTCACCTAGTGCAG”, the binding signal was 15300 fluorescence intensity (a.u.). Consider “AAACTAATTCGCGAGACGAATCTGTTGAGCCTAATTAATCCGGAGTCACCTAGTGCAG”, for which the binding signal is 3220 fluorescence intensity (a.u.). The result for “CGGAAACAGATCATCAAACCCATACGTCAGTGATCCAAGTCGGAGTCACCTAGTGCAG” reads 3410 fluorescence intensity (a.u.); that for “ATTCATATATATATATACACACACACTTACTTTGTATATGCGGAGTCACCTAGTGCAG”, 3190 fluorescence intensity (a.u.); that for “CTTATATTCCCATCATCCCATGATATGACATGGCATCGCCCGGAGTCACCTAGTGCAG”, 10500 fluorescence intensity (a.u.).

Turning to “GGGGCAAACCCACGATCGAACACCTTGAGTGCAGCCGTCGCGGAGTCACCTAGTGCAG”, the binding signal is 8880 fluorescence intensity (a.u.). With “CGCGCGGGCCTCCTCCGTTGTTGGCGTGGCTTCACACCTGCGGAGTCACCTAGTGCAG”, the binding signal is 3800 fluorescence intensity (a.u.). The figure for “CGCGCCACTGCGTCGTCACCGCCGTGAATCGCTCTTAGGCCGGAGTCACCTAGTGCAG” is 4360 fluorescence intensity (a.u.); for “ACGTGTCGAGTCACACCTGTCTGTTAGGTCCGATCGTATGCGGAGTCACCTAGTGCAG” it is 7880 fluorescence intensity (a.u.).

Turning to “TTTATGTCTAAACCGCAGCTTACTCATTTTCCTTGTCTATCGGAGTCACCTAGTGCAG”, the binding signal is 3520 fluorescence intensity (a.u.).

Regarding “GCGTGGTGCGTATCGTGCTCATCGCATCGGCCTCCGTATACGGAGTCACCTAGTGCAG”, the binding signal is 40000 fluorescence intensity (a.u.). Consider “CTTCCATCAAAACTTTGATTCTACTGGTTTCTTCCTGAAACGGAGTCACCTAGTGCAG”, for which the binding signal is 29200 fluorescence intensity (a.u.). “AAACCATGACATGGCACCCGCAATGACGTGGTAGGCTACTCGGAGTCACCTAGTGCAG”: the binding signal was 18100 fluorescence intensity (a.u.). The result for “GTCGCCATGGCAACGCCACGTGGGAATGTTCCTCGTCTCGCGGAGTCACCTAGTGCAG” reads 17200 fluorescence intensity (a.u.); that for “TTGCGTTGTCGATCGGTTCGTCTAATGATGATTGTAAGCCCGGAGTCACCTAGTGCAG”, 5490 fluorescence intensity (a.u.). As to “ACGTCCTGTCTCACGCGCGGCCTGCATGACGCCCTCAATGCGGAGTCACCTAGTGCAG”, the binding signal was 3760 fluorescence intensity (a.u.). The figure for “TAGAATGTTGGTCATGGATTGTCAAAATCTCATCTGTTTTCGGAGTCACCTAGTGCAG” is 3830 fluorescence intensity (a.u.).

With “GCGCCCGCCGTGTTGGATGCGTCACCGCCCTCCGTTTCAGCGGAGTCACCTAGTGCAG”, the binding signal is 7400 fluorescence intensity (a.u.).

With “CGCCTATATGTATGTTTTGACTGGGTCATCGTCCCATGCGCGGAGTCACCTAGTGCAG”, the binding signal is 29600 fluorescence intensity (a.u.). The figure for “AACAGCGGCGAACGACACGAATCCTTCCACGTCATCGATCCGGAGTCACCTAGTGCAG” is 31000 fluorescence intensity (a.u.); for “ATGAACATATTTCAATCGTTCAGTACCTTCAAGCCACAGGCGGAGTCACCTAGTGCAG” it is 39800 fluorescence intensity (a.u.); for “GTACTAGGGGAGTACACGTGGACAGAAGAAAGGAAAAGAGCGGAGTCACCTAGTGCAG” it is 4140 fluorescence intensity (a.u.). As for “GAAATAATTATACTAAATCCAGATGTTGCATGCATGATACCGGAGTCACCTAGTGCAG”, the binding signal was 3420 fluorescence intensity (a.u.).

As for “ACCAATTAAGGTGAAGATCTAGCAGATGAGCTGTAATAGCCGGAGTCACCTAGTGCAG”, the binding signal was 4430 fluorescence intensity (a.u.). For “AAACATCATATCAAATCTTTGGACATAGGTATAGAATATTCGGAGTCACCTAGTGCAG”, the binding signal was 8890 fluorescence intensity (a.u.). For “GGACTTTAAGATGTAACGTGTGTATGACAGGTGAGACCAGCGGAGTCACCTAGTGCAG”, the binding signal was 4860 fluorescence intensity (a.u.).

For “ATCCACCACGCAACCTTGCCGCCGCACTTGCACATGATGGCGGAGTCACCTAGTGCAG”, the binding signal was 3460 fluorescence intensity (a.u.).
